PubChem BioAssay AID1159578 | Peter MacCallum Cancer Centre, 2015

- Purpose: 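Knock-downs that alter how fast lymphatic endothelial cells migrate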 (primary screen)
- Cell system: human lymphatic endothelial cells
- Reagent: siRNA pool against human genes, 40 nM
- Timing: 48 h after transfection
- Read-out: 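High-content imaging of dye-stained cells in a scratch assay measures filled wound area and nuclei per well; duplicate means given as ratio to mock and robust z-score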
- Direction: migration robust z-score: higher = faster migration into the scratch; migration relative to mock: higher = more scratch area covered than mock; nuclei per well: higher = more cells in the well
- Rule for the call: 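Pools averaging fewer than 3300 nuclei are never called; remaining pools count as changed when migration robust z lies outside -2 to 2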
- Meaning of the calls: active = migration changed; inactive = no migration change, or too few cells
In all, the deposit lists about 18,000 reagents; shown is a part drawn at random. Of all reagents, about 1,030 (5.7%) were called active. 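Inactive calls also include pools with fewer than 3300 nuclei, whose migration was not assessed.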 The raw values are shown without normalisation. A number with no mark means an inactive call.

Target gene,migration robust z-score,migration class with cell-count check,migration relative to mock,"nuclei per well, duplicate mean"
SPATA20 (spermatogenesis associated 20),-0.45,migration z between -2 and 2; enough cells,0.77,5230
PCDHA10 (protocadherin alpha 10),-1.12,migration z between -2 and 2; enough cells,0.59,5186
SLC75A1,-0.39,migration z between -2 and 2; enough cells,0.78,4129
ZIC5 (Zic family zinc finger 5),1.05,migration z between -2 and 2; enough cells,1.16,4872
SLC28A2,-0.52,migration z between -2 and 2; enough cells,0.7,6390
PCDHB6 (protocadherin beta 6),-0.29,migration z between -2 and 2; enough cells,0.81,6559
CCDC59 (coiled-coil domain containing 59),-1.51,migration z between -2 and 2; enough cells,0.5,4755
CMTM4 (CKLF like MARVEL transmembrane domain containing 4),1.06,migration z between -2 and 2; enough cells,1.16,6366
RNF6 (ring finger protein 6),0.29,migration z between -2 and 2; enough cells,0.86,5020
PJA2 (praja ring finger ubiquitin ligase 2),-0.42,migration z between -2 and 2; enough cells,0.72,6524
TM6SF1 (transmembrane 6 superfamily member 1),-0.16,migration z between -2 and 2; enough cells,0.84,6468
PLEKHA4 (pleckstrin homology domain containing A4),-1.39,migration z between -2 and 2; enough cells,0.52,5832
AGTPBP1 (ATP/GTP binding carboxypeptidase 1),-0.24,migration z between -2 and 2; enough cells,0.76,5294
OR2H2 (olfactory receptor family 2 subfamily H member 2),-1,migration z between -2 and 2; enough cells,0.62,5631
N4BP3 (NEDD4 binding protein 3),-0.39,migration z between -2 and 2; enough cells,0.78,5128
PEX12 (peroxisomal biogenesis factor 12),0.48,migration z between -2 and 2; enough cells,1.01,5350
NOP53 (NOP53 ribosome biogenesis factor),-1,migration z between -2 and 2; enough cells,0.62,5217
PARP4 (poly(ADP-ribose) polymerase family member 4),-0.23,migration z between -2 and 2; enough cells,0.76,5306
DBT (dihydrolipoamide branched chain transacylase E2),0.24,migration z between -2 and 2; enough cells,0.85,5194
AXIN2 (axin 2),0.36,migration z between -2 and 2; enough cells,0.98,5496
RAX (retina and anterior neural fold homeobox),-0.03,migration z between -2 and 2; enough cells,0.8,5690
TMEM196 (transmembrane protein 196),1.06,migration z between -2 and 2; enough cells,1.16,7102
DHODH (dihydroorotate dehydrogenase (quinone)),-1.48,migration z between -2 and 2; enough cells,0.52,3848
KASH5 (KASH domain containing 5),-1.78,migration z between -2 and 2; enough cells,0.43,6068
LYPD1 (LY6/PLAUR domain containing 1),-0.02,migration z between -2 and 2; enough cells,0.88,5625
MED14 (mediator complex subunit 14),-1.27,migration z between -2 and 2; enough cells,0.56,4927
"B3GALNT2 (beta-1,3-N-acetylgalactosaminyltransferase 2)",-1.43,migration z between -2 and 2; enough cells,0.53,7272
ZNF747 (zinc finger protein 747),0.97,migration z between -2 and 2; enough cells,1.14,4384
PRTFDC1 (phosphoribosyl transferase domain containing 1),0.26,migration z between -2 and 2; enough cells,0.86,5966
KLHL8 (kelch like family member 8),-0.65,migration z between -2 and 2; enough cells,0.72,4838

Records listed so far whose target name starts with A or a:
Target gene,migration robust z-score,migration class with cell-count check,migration relative to mock,"nuclei per well, duplicate mean"
AGTPBP1 (ATP/GTP binding carboxypeptidase 1),-0.24,migration z between -2 and 2; enough cells,0.76,5294
AXIN2 (axin 2),0.36,migration z between -2 and 2; enough cells,0.98,5496

The results go on:
Target gene,migration robust z-score,migration class with cell-count check,migration relative to mock,"nuclei per well, duplicate mean"
HOXB9 (homeobox B9),-0.81,migration z between -2 and 2; enough cells,0.68,5702
FZD9 (frizzled class receptor 9),-0.08,migration z between -2 and 2; enough cells,0.79,4958
TMEM40 (transmembrane protein 40),0.8,migration z between -2 and 2; enough cells,1.1,6232
NUMBL (NUMB like endocytic adaptor protein),0.34,migration z between -2 and 2; enough cells,0.98,5866
CLCN1 (chloride voltage-gated channel 1),-0.13,migration z between -2 and 2; enough cells,0.78,5650
MAGEF1 (MAGE family member F1),-0.02,migration z between -2 and 2; enough cells,0.88,5496
CEBPE (CCAAT enhancer binding protein epsilon),-1.08,migration z between -2 and 2; enough cells,0.6,6506
UCN (urocortin),-0.45,migration z between -2 and 2; enough cells,0.77,4984
CCNB1IP1 (cyclin B1 interacting protein 1),0.72,migration z between -2 and 2; enough cells,0.94,5644
HDAC3 (histone deacetylase 3),-0.28,migration z between -2 and 2; enough cells,0.75,5197
"KRAS (KRas proto-oncogene, GTPase)",-1.94,migration z between -2 and 2; enough cells,0.43,5501
SGK1 (serum/glucocorticoid regulated kinase 1),0.31,migration z between -2 and 2; enough cells,0.86,6441
AAMDC (adipogenesis associated Mth938 domain containing),-0.08,migration z between -2 and 2; enough cells,0.86,5812
NR4A2 (nuclear receptor subfamily 4 group A member 2),-2.59,under 3300 nuclei; migration not judged,0.3,2682
P4HB (prolyl 4-hydroxylase subunit beta),0.32,migration z between -2 and 2; enough cells,0.86,5886
USP22 (ubiquitin specific peptidase 22),-0.42,migration z between -2 and 2; enough cells,0.73,5886
NME9 (NME/NM23 family member 9),0.26,migration z between -2 and 2; enough cells,0.86,6500
AP3S2 (adaptor related protein complex 3 subunit sigma 2),-1.18,migration z between -2 and 2; enough cells,0.57,5040
BAZ1A (bromodomain adjacent to zinc finger domain 1A),-0.5,migration z between -2 and 2; enough cells,0.76,5384
EIF1AX (eukaryotic translation initiation factor 1A X-linked),-0.05,migration z between -2 and 2; enough cells,0.8,5816
NPM3 (nucleophosmin/nucleoplasmin 3),1.66,migration z between -2 and 2; enough cells,1.31,7144
ZBED8L (ZBED8 like),-0.44,migration z between -2 and 2; enough cells,0.77,6364
ACER1 (alkaline ceramidase 1),-0.16,migration z between -2 and 2; enough cells,0.78,4796
MZF1 (myeloid zinc finger 1),1.32,migration z between -2 and 2; enough cells,1.06,6093
LY6D (lymphocyte antigen 6 family member D),-0.84,migration z between -2 and 2; enough cells,0.66,6838
EPCIP (exosomal polycystin 1 interacting protein),-0.04,migration z between -2 and 2; enough cells,0.88,4898
ARHGEF16 (Rho guanine nucleotide exchange factor 16),0,migration z between -2 and 2; enough cells,0.88,6076
DCD (dermcidin),2.1 (active),migration z above 2; enough cells,1.43,6074
PXN (paxillin),-0.99,migration z between -2 and 2; enough cells,0.62,6110
FGF22 (fibroblast growth factor 22),-2.48,under 3300 nuclei; migration not judged,0.24,2279
"PRR7 (proline rich 7, synaptic)",-1.14,migration z between -2 and 2; enough cells,0.59,6047
ZNF362 (zinc finger protein 362),1.42,migration z between -2 and 2; enough cells,1.25,6050
PLPP2 (phospholipid phosphatase 2),-0.31,migration z between -2 and 2; enough cells,0.74,3821
PYCARD (PYD and CARD domain containing),0.34,migration z between -2 and 2; enough cells,0.87,5832
PTPRJ (protein tyrosine phosphatase receptor type J),1.01,migration z between -2 and 2; enough cells,1,5012
EBI3 (Epstein-Barr virus induced 3),0.32,migration z between -2 and 2; enough cells,0.97,4662
"FARS2 (phenylalanyl-tRNA synthetase 2, mitochondrial)",-0.13,migration z between -2 and 2; enough cells,0.78,3682
SLCO1B7,0.67,migration z between -2 and 2; enough cells,1.05,4467
CEP135 (centrosomal protein 135),-1.27,migration z between -2 and 2; enough cells,0.55,5503
"PCK2 (phosphoenolpyruvate carboxykinase 2, mitochondrial)",0.8,migration z between -2 and 2; enough cells,0.96,4642
CLCN6 (Cl-/H+ antiporter 6),-0.16,migration z between -2 and 2; enough cells,0.78,5066
HNRNPA1 (heterogeneous nuclear ribonucleoprotein A1),0.1,migration z between -2 and 2; enough cells,0.91,5830
DNAI2 (dynein axonemal intermediate chain 2),0.56,migration z between -2 and 2; enough cells,1.03,6276
